Reference: publication PMC9192764
These are yes or no findings as the source states them, for the method shown. In cells and extracts the contact can be indirect. Some entries that bind do so weakly or less than the wild type.

B1: WT AcrB nascent chain (protein, UniProt P31224 1-1049)
chain: MPNFFIDRPIFAWVIAIIIMLAGGLAILKLPVAQYPTIAPPAVTISASYPGADAKTVQDTVTQVIEQNMNGIDNLMYMSSNSDSTGTVQITLTFESGTDADIAQVQVQNKLQLAMPLLPQEVQQQGVSVEKSSSSFLMVVGVINTDGTMTQEDISDYVAANMKDAISRTSGVGDVQLFGSQYAMRIWMNPNELNKFQLTPVDVITAIKAQNAQVAAGQLGGTPPVKGQQLNASIIAQTRLTSTEEFGKILLKVNQDGSRVLLRDVAKIELGGENYDIIAEFNGQPASGLGIKLATGANALDTAAAIRAELAKMEPFFPSGLKIVYPYDTTPFVKISIHEVVKTLVEAIILVFLVMYLFLQNFRATLIPTIAVPVVLLGTFAVLAAFGFSINTLTMFGMVLAIGLLVDDAIVVVENVERVMAEEGLPPKEATRKSMGQIQGALVGIAMVLSAVFVPMAFFGGSTGAIYRQFSITIVSAMALSVLVALILTPALCATMLKPIAKGDHGEGKKGFFGWFNRMFEKSTHHYTDSVGGILRSTGRYLVLYLIIVVGMAYLFVRLPSSFLPDEDQGVFMTMVQLPAGATQERTQKVLNEVTHYYLTKEKNNVESVFAVNGFGFAGRGQNTGIAFVSLKDWADRPGEENKVEAITMRATRAFSQIKDAMVFAFNLPAIVELGTATGFDFELIDQAGLGHEKLTQARNQLLAEAAKHPDMLTSVRPNGLEDTPQFKIDIDQEKAQALGVSINDINTTLGAAWGGSYVNDFIDRGRVKKVYVMSEAKYRMLPDDIGDWYVRAADGQMVPFSAFSSSRWEYGSPRLERYNGLPSMEILGQAAPGKSTGEAMELMEQLASKLPTGVGYDWTGMSYQERLSGNQAPSLYAISLIVVFLCLAALYESWSIPFSVMLVVPLGVIGALLAATFRGLTNDVYFQVGLLTTIGLSAKNAILIVEFAKDLMDKEGKGLIEATLDAVRMRLRPILMTSLAFILGVMPLVISTGAGSGAQNAVGTGVMGGMVTATVLAIFFVPVFFVVVRRRFSRKNEDIEHSHTVDHH
B2: AcrB-∆71aa nascent chain (protein, UniProt P31224)
chain: MPNFFIDRPIFAWVIAIIIMLAGGLAILKLPVAQYPTIAPPAVTISASYEVQQQGVSVEKSSSSFLMVVGVINTDGTMTQEDISDYVAANMKDAISRTSGVGDVQLFGSQYAMRIWMNPNELNKFQLTPVDVITAIKAQNAQVAAGQLGGTPPVKGQQLNASIIAQTRLTSTEEFGKILLKVNQDGSRVLLRDVAKIELGGENYDIIAEFNGQPASGLGIKLATGANALDTAAAIRAELAKMEPFFPSGLKIVYPYDTTPFVKISIHEVVKTLVEAIILVFLVMYLFLQNFRATLIPTIAVPVVLLGTFAVLAAFGFSINTLTMFGMVLAIGLLVDDAIVVVENVERVMAEEGLPPKEATRKSMGQIQGALVGIAMVLSAVFVPMAFFGGSTGAIYRQFSITIVSAMALSVLVALILTPALCATMLKPIAKGDHGEGKKGFFGWFNRMFEKSTHHYTDSVGGILRSTGRYLVLYLIIVVGMAYLFVRLPSSFLPDEDQGVFMTMVQLPAGATQERTQKVLNEVTHYYLTKEKNNVESVFAVNGFGFAGRGQNTGIAFVSLKDWADRPGEENKVEAITMRATRAFSQIKDAMVFAFNLPAIVELGTATGFDFELIDQAGLGHEKLTQARNQLLAEAAKHPDMLTSVRPNGLEDTPQFKIDIDQEKAQALGVSINDINTTLGAAWGGSYVNDFIDRGRVKKVYVMSEAKYRMLPDDIGDWYVRAADGQMVPFSAFSSSRWEYGSPRLERYNGLPSMEILGQAAPGKSTGEAMELMEQLASKLPTGVGYDWTGMSYQERLSGNQAPSLYAISLIVVFLCLAALYESWSIPFSVMLVVPLGVIGALLAATFRGLTNDVYFQVGLLTTIGLSAKNAILIVEFAKDLMDKEGKGLIEATLDAVRMRLRPILMTSLAFILGVMPLVISTGAGSGAQNAVGTGVMGGMVTATVLAIFFVPVFFVVVRRRFSRKNEDIEHSHTVDHH
B3: OppC-43aa repeat nascent chain (protein, UniProt P0AFH6 1-302)
chain: MMLSKKNSETLENFSEKLEVEGRSLWQDARRRFMHNRAAVASLIVLVLIALFVILAPMLSQFAYDDTDWAMMSSAPDMESGHYFGTDSSGRDLLVRVAIGGRSQFAYDDTDWAMMSSAPDMESGHYFGTDSSGRDLLVRVAIGGRISLMVGVAAALVAVVVGTLYGSLSGYLGGKVDSVMMRLLEILNSFPFMFFVILLVTFFGQNILLIFVAIGMVSWLDMARIVRGQTLSLKRKEFIEAAQVGGVSTSGIVIRHIVPNVLGVVVVYASLLVPSMILFESFLSFLGLGTQEPLSSWGALLSDGANSMEVSPWLLLFPAGFLVVTLFCFNFIGDGLRDALDPKDR
B4: WT OppC nascent chain (protein, UniProt P0AFH6 1-302)
chain: MMLSKKNSETLENFSEKLEVEGRSLWQDARRRFMHNRAAVASLIVLVLIALFVILAPMLSQFAYDDTDWAMMSSAPDMESGHYFGTDSSGRDLLVRVAIGGRISLMVGVAAALVAVVVGTLYGSLSGYLGGKVDSVMMRLLEILNSFPFMFFVILLVTFFGQNILLIFVAIGMVSWLDMARIVRGQTLSLKRKEFIEAAQVGGVSTSGIVIRHIVPNVLGVVVVYASLLVPSMILFESFLSFLGLGTQEPLSSWGALLSDGANSMEVSPWLLLFPAGFLVVTLFCFNFIGDGLRDALDPKDR

Target: SecA with a C-terminal thrombin-cleavable AviTag (chromosomal) (E. coli (endogenous in strain K-12 W3110)) (UniProt P10408)
Assay: selective ribosome profiling (EDC cross-linking, affinity purification of SecA-bound ribosome-nascent chain complexes, sequencing of ribosome-protected mRNA fragments); cryogenically lysed E. coli W3110 cells; SecA cross-linked to nascent chains in the lysate with 20 mM EDC at room temperature; MNase digestion; monosomes through a sucrose cushion; biotinylated Avi-tagged SecA held on streptavidin magnetic beads, eluted by thrombin; enrichment = SecA interactome over translatome at each codon; two biological replicates; also done in secA∆ZnBD, ∆secB, ∆tig and CCCP-treated cells

Row | Binder | binding
1 | B1 | binds
2 | B2 | binds
3 | B3 | binds
4 | B4 | no binding
